According to patent US9949980B2, “Drugs to prevent HPV infection” (Wisconsin Alumni Research Foundation, priority 2008, dated 2018):
Some results were stated once for a whole list of compounds, not compound by compound.

test system: HPV16 pseudovirus; assay type: cell-based; settings: HaCaT dose response
Source text: FIG. 2. Dose dependence inhibition of HPV16 pseudovirus infection in a human keratinocyte cell line (HaCaT). Graphed are the dose-dependent effects of lead compounds shown in Table 2 on the efficiency of infection by HPV16 pseudovirus scored by measuring luciferase reporter activity (squares) as well as their effects on cell viability (circles).
All but one of these compounds (6 is […]) were repurchased and subjected to a tertiary screen performed in the human keratinocyte cell line, HaCaT, and using HPV16 pseudoviruses encoding a third reporter gene, firefly luciferase, transcribed from a different, E1a, promoter.
The infectivity assay was repeated at least twice and each assay was performed in replicate (n≥3).
At 4 hours prior to exposure of cell to pseudoviruses, compounds were added to plates in 1% DMSO final concentration at the indicated amounts. Four hours later, 10 multiplicity of infection (M.O.I.) units of HPV16 pseudovirus carrying the plasmid LucF was added to the cells. 72 hours later, cells were lysed and luciferase assays performed using the Luciferase Assay System (Promega Cat. #E1501). For infection studies with HPV11 and HPV31 pseudoviruses, 200 virus genome equivalents (vge) of virus per cell were used. Cell viability was assessed in parallel plates by Luminescent Cell Viability Assay (Promega Cat. #G7571).

SMILES | IC50 in words, HPV16 pseudovirus infection
COc1ccc(C(O)(CNCc2ccccc2)c2ccc(Br)cc2)cc1 (centres unmarked) [Compound 9, 2-(benzylamino)-1-(4-bromophenyl)-1-(4-methoxyphenyl)ethanol] | low to mid μM range
O=C1NC(=S)SC1=Cc1ccc(Oc2ccc([N+](=O)[O-])cn2)cc1 [Compound 12, 5-{4-[(5-nitro-2-pyridinyl)oxy]benzylidene)-2-thioxo-1,3-thiazolidin-4-one] | low to mid μM range
FC(F)(F)c1cnc2c(c1)nc(S)n2-c1ccc(Cl)cc1 [Compound 20, 3-(4-chlorophenyl)-6-(trifluoromethyl)-3H-imidazo[4,5-b]pyridine-2-thiol] | low to mid μM range
Cc1cccc(NC(=O)Nc2ccc(C(C)(C)C)cc2)n1 [Compound 21, 1-(4-tert-butylphenyl)-3-(6-methylpyridin-2-yl)urea] | low to mid μM range
Cc1ccc(C2Nc3ccccc3NC3=C2C(=O)CC(c2ccccc2)C3)s1 (centres unmarked) [Compound 22, 11-(5-methyl-2-thienyl)-3-phenyl-2,3,4,5,10,11-hexahydro-1H-dibenzo[b,e][1,4]diazepin-1-one] | low to mid μM range
